Results reported in patent US11623923B2, “Uracil compound as c-MET/AXL inhibitor” (MEDSHINE DISCOVERY, INC., priority 2017, dated 2023).
For at least one compound, name, drawing or mass did not settle the structure.

Tested on: Hs746t gastric cancer cells
Experiment: Drug efficacy in a model with subcutaneous xenograft tumor of Hs746t gastric cancer cells
Format: in vivo, BALB/c nude mice
Method: Assay Example 4: Assay of Drug Efficacy in a Model with Subcutaneous Xenograft Tumor of Hs746t Gastric Cancer Cells
Human gastric cancer Hs746t cells were cultured in vitro in monolayer. The culture conditions were DMEM medium plus 10% fetal bovine serum, 100 U/mL penicillin and 100 U/mL streptomycin, 37° C., 5% CO2 incubator. The passaging was carried out by conventional digestion with trypsin-EDTA twice a week. When the cell saturation was 80%-90%, and the number met the requirements, the cells were collected, counted, and inoculated.
BALB/c nude mice, male, 6-8 weeks old, weighted 18-22 grams.
0.2 mL (2×10^6, cells:Matrigel=1:1) of HS 746T cells were subcutaneously inoculated on the right back of each mouse. When the average tumor volume reached about 100-150 mm^3, administration to each group was started.
Assay index: The assay index is to investigate whether tumor growth is inhibited, delayed or cured. Tumor diameter was measured twice a week with a vernier caliper. The calculation formula of tumor volume is: V=0.5a×b^2, wherein a and b represent the long and short diameters of the tumor, respectively. The anti-tumor efficacy (TGI) of the compound was evaluated by T-C (day) and T/C (%).
Assay results: See Table 4.

In the case of `CN(C)C(=O)Nc1cc(Oc2ccc(NC(=O)c3cn(CC4CC4)c(=O)n(-c4ccc(F)cc4)c3=O)cc2F)ccn1` [Example 17], the “tumor inhibitory effect (in words)” value (dose of 1.5 mpk) is reported as “effective”, the “tumor inhibitory effect (in words)” value (dose of 9 mpk) is reported as “eliminated tumors” and the “tumor inhibitory effect (in words)” value (same dose of 4.5 mpk) is reported as “better tumor inhibitory effects than BMS777607 and LY2801653”.
